Results from cells or extracts need not show a direct contact. Protein sequences can lack the tags named with them.

The target of the series is T1, Lmx1a (Mus musculus) (UniProt Q9JKU8).
T1 sequence (looked up, limits assumed): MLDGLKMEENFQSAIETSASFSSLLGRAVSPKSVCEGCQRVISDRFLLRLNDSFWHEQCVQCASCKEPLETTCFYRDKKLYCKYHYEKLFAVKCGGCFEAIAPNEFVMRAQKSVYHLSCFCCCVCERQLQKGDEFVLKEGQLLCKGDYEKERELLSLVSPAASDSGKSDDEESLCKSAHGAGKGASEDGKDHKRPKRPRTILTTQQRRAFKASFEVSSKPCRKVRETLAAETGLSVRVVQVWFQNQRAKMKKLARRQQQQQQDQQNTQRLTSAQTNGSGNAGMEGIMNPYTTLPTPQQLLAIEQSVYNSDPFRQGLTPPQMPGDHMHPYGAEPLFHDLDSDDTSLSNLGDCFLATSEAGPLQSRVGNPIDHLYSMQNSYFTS
The experiment in a line: EMSA. As to conditions: supershifted by anti-Lmx1a; 60 mM KCl, 1 ug poly(dI-dC); protein in a lysate after overexpression; label: 32P.
In the case of “CTATGAGTGCACGTCGTTAATCACAAACACACACA / GTGTGTGTGTTTGTGATTAACGACGTGCACTCATA [Wnt1 promoter Lmx1a binding site]”, the binding result was “binds”.

Turning to “CTTGCAAACACTTAATCCAAAAACGCCAA / GTTGGCGTTTTTGGATTAAGTGTTTGCAA [Pitx3 promoter Lmx1a binding site]”, the binding result was “binds”.

Regarding “GTGATAAGAAATAAATCTAATTACCATATCCTTTGAATA / CTATTCAAAGGATATGGTAATTAGATTTATTTCTTATCA [Nurr1 promoter Lmx1a binding site]”, the binding result is “binds”.
